Assay results reported in PubChem BioAssay AID1508600 (Functional Genomics Laboratory (NCATS/FGL), 2020).
About 3,700 (7%) of roughly 53,000 sequences were called active.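 The calls were made as follows: active = gene knockdowns whose robust z-score for IL-1 alpha signal is at least 2 or at most -2, so actives lie on both sides; inactive = the rest.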 The list shows a part of the results.

Assay: Components of the Cytosolic LPS Sensing Pathway: Gene Identification via Genome-wide siRNA Screen;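 also: robust z of the log signal after scaling to non-targeting control siRNA wells of the plate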
Details: RAW264.7 macrophages, IL-1a HTRF, actives lie on both sides, screened at 100 nM (by protocol), cells primed 5 h with Pam3CSK4 first
Outline: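 Three distinct siRNAs per gene were tested singly at 100 nM in RAW264.7 macrophages. Following Pam3CSK4 priming and 24 hour LipidA transfection, IL-1a secretion was read by HTRF.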

| Sequence | z-score |
| --- | --- |
| CCGUUUUUUUCUUACAAUGTT against Larp6 | inactive: 0.237 |
| GGGACUUCAUCCGUCAAAATT against Dnajc15 | inactive: 1.42 |
| CGUGGUUCAUUUACAGGUUTT against Rnf2 | inactive: 0.783 |
| GGACAACAUCAUUAGCCUCTT against Egr3 | inactive: 0.311 |
| GGUGGAGUCUUCUUCCUCATT against Ube2d1 | inactive: -0.414 |
| GGCUUCUUUGUUGUUUGCATT against M6pr | inactive: -1.45 |
| CGUAAUGCAUUACCUCAAUTT against Prr18 | inactive: 0.85 |
| GGCCAAUUCCAGUGAGAUGTT against Lgsn | inactive: -0.0795 |
| GGGAAGGAGUUUUUGAAAATT against Tinf2 | inactive: -0.879 |
| GUAUGGAUGUGGAAGCCUCTT against Olfr1417 | inactive: -0.77 |
| GGAGAACACAGGUGGACUUTT against Ppy | inactive: 0.125 |
| CGACCAGUCACAAUGGUUATT against Edil3 | inactive: 1.43 |
| GGAGCUGUCCAGGUUUAUUTT against Psmd6 | active: -2.72 |
| GGUAUUUGUGAAGACGUGUTT against Zfp956 | inactive: -0.619 |
| GCCCUUGGAAUUUACCACUTT against Aldh8a1 | inactive: -0.546 |
| GCAGUUCAAGUCUUGAAUATT against Olfr934 | inactive: -1.09 |
| GGAGAAAGUCUACCUGAGCTT against Tmem132d | inactive: -0.387 |
| CCUGUUGCUCAAAGACUUGTT against Siglec1 | inactive: -1.45 |
| GGUUCUUUGGAAUGCUUUUTT against Myl12a | active: 2.76 |
| CCACUAUUUAAUCUUACCGTT against Hoxc13 | inactive: 0.175 |
| GGCUUUUGGCAACAGCACUTT against Rbm14 | inactive: -0.494 |
| GGAUGAUCACACUAGAGUUTT against Fam222b | inactive: 0.752 |

| Sequence | z-score |
| --- | --- |
| GCUUACCUAACAAAUACAATT against Hacd2 | inactive: 1.99 |
| GUACACCACAAUCCUCACCTT against Olfr677 | inactive: -0.0852 |
| CCGAUCAUUAUGAGCAUACTT against Nxf7 | inactive: -1.76 |
| GGGAAGGACCUCAUUCAACTT against Btnl10 | inactive: 0.719 |
| GCAGAGGAUAUAAAACAAGTT against Pde2a | inactive: -0.86 |
| GGUAGCUAAAGAAAACCAGTT against Rangrf | inactive: -1.12 |
| GGAGAUUACCAGGUAUCAGTT against Ptpn21 | inactive: -1.55 |
| GGCAUUUGACUUUAUUGCATT against Nit1 | active: 3.54 |
| GGACUAUCUUUAUGAUGUGTT against Ush1c | inactive: -0.164 |
| GUCUACUUUGACCGUGAUGTT against Fthl17e | inactive: -1.56 |
| GGCAAUGUGCUGAUCCACUTT against Slc38a10 | inactive: -0.349 |
| GCUAUUACACCAGUUUUAATT against Csde1 | inactive: 0.949 |
| GCUUAUUAACCACUACCACTT against Pik3r3 | inactive: 0.351 |
| GGAGCACAAUUCAAAUUCATT against Zbtb6 | active: 2.06 |
| GCACAAUCAUUCUUCUCAUTT against Mtor | inactive: -0.96 |
| GGUUCGUUUGCAUUGGAAUTT against Cysltr1 | inactive: 0.428 |
| GCCAGAUGCGAUUCUCAGGTT against C730034F03Rik | inactive: 0.195 |
| GGUAUCCAACUGGUUUGUATT against Tgif2lx1 | inactive: 1.54 |
| GGUCCAUUACGUGCGCUUATT against Cage1 | inactive: -0.00235 |
| CGAUCAUGAGUCGAAGACUTT against Olfr1257 | inactive: 1.43 |
| GCUCAGUGGACAUGCUCUATT against Hpse | inactive: -0.502 |
| GGUCAUUGUCAAAGUCAAGTT against Nutm1 | active: 2.4 |

Some of the entries so far, field by field.
GGCCAAUUCCAGUGAGAUGTT against Lgsn
  z-score: inactive: -0.0795
CCACUAUUUAAUCUUACCGTT against Hoxc13
  z-score: inactive: 0.175
GUCUACUUUGACCGUGAUGTT against Fthl17e
  z-score: inactive: -1.56
GCCAGAUGCGAUUCUCAGGTT against C730034F03Rik
  z-score: inactive: 0.195

Remaining list, next part

| Sequence | z-score |
| --- | --- |
| GGAGAAAGAUGUGCUCUGGTT against Il1rap | inactive: -1.99 |
| GGAAAGUGCAGGAGAACAGTT against Mettl2 | inactive: -0.304 |
| CCUACACAGCUGAAAUGGUTT against Olfr710 | inactive: -0.375 |
| GGUGAUGGGCAAGGUGUUCTT against Syvn1 | inactive: 0.25 |
| GGCUGUGCUACAGUUUCUCTT against Get4 | inactive: -0.498 |
| CGAAAUAGGUAUUAAGGGUTT against Olfr1372-ps1 | inactive: -0.497 |
| CCAAUAUGGUUUGUGGACUTT against Ube2q2 | inactive: -0.24 |
| GCGAGUUGAAGACUGAAGGTT against Ccdc68 | inactive: 1.44 |
| GGAGAUGAAGAAGAUUCAATT against Pura | inactive: 0.604 |
| GGGUCAUCAGAGCUGACAGTT against Gatad2a | inactive: -1.91 |
| GCUACCUUCAGACAAGCACTT against Prss32 | inactive: -0.877 |
| GGCUCUCUAGAUUCAAAAATT against Lars2 | inactive: 0.883 |
| GGAAUUCAUCUUACAUUCCTT against Acox3 | active: 2.42 |
| GCAAGAACUGACUUUCCUATT against Snn | inactive: 0.768 |
| GGCAGCAGAGAACAAGAAATT against Serbp1 | inactive: -1.43 |
| GGAAGAAGUCUGGAGGAUGTT against Steap3 | inactive: -0.493 |
| GGACACUGUACUCAAACCUTT against Cntnap5b | active: -2.86 |
| GGCACAAAUGAAUUCAUACTT against Zfp958 | inactive: -0.927 |
| GGAUGAGUUCCUUUUACUATT against Cntnap4 | inactive: 0.285 |
| GCAAGUCUGGAUGGAUGAGTT against 1190005I06Rik | inactive: -1.54 |
| GGUCUCUGAACUGAUCCGUTT against Cyp7a1 | inactive: -0.685 |
| GGUAAAUUGAGAGAAUAACTT against Tpd52 | inactive: 0.214 |

| Sequence | z-score |
| --- | --- |
| GGUAAUGCAAACAUGCGGGTT against Lhfpl1 | inactive: -0.519 |
| CCCUGACUUAAUAAGAGACTT against Tmem108 | inactive: -0.21 |
| GGAUUGUCGAGAUUGCGUCTT against Tbcc | inactive: -0.473 |
| GGGUACAAGUGCUGAAAAATT against Grhl1 | inactive: -0.0331 |
| GCAACAAGCUUUCUGUGCGTT against Map10 | inactive: 0.22 |
| GGUUACCUUGAGCUAUGGGTT against Rfng | inactive: 1.23 |
| GGAGAAAGAUGGCUCAUCUTT against Itm2a | inactive: -0.0843 |
| GGUGUCUCUGAAGAUUGAATT against Cdc6 | inactive: 0.345 |
| GGAAUUCAUCACUCAAAUGTT against Catsper4 | inactive: 1.98 |
| GGUGACCAUCAAAUGUGGCTT against Dipk1b | inactive: 0.694 |
| GGUAUUCGCUUAAAAUCCATT against Stab2 | inactive: 1.81 |
| GGAUGUUGUAGUCAAAACCTT against Ttll4 | inactive: 1.28 |
| GGACUGAUGCAUUCUUUGCTT against Trmt10a | inactive: 0.139 |
| CCAUUGUGUCAUACGGCUUTT against Olfr211 | inactive: 0.981 |
| GGUCUCUUCAUUCUUGUGCTT against 1700084J12Rik | inactive: 0.934 |
| GCUCAUUCUUACCAAUCUCTT against Vsig2 | active: -2.25 |
| GGAAUAGUAUACAAUAACCTT against Fbxl5 | inactive: 0.993 |
| GAACAACAACAGACAAGUGTT against Cxcl12 | inactive: -0.65 |
| CCCAGUGAAUCUAAGAAAATT against Zfp260 | inactive: 1.33 |
| CCCUACUCCUCAGAACUUATT against Tbc1d10a | inactive: -0.499 |
| CGCACCUCCAGAUCAAAAGTT against Ucn3 | inactive: 1.69 |
| AACUUAUGGUUGGUUGUCGTT against Marveld3 | inactive: -0.159 |

| Sequence | z-score |
| --- | --- |
| GGGCAAUCAAGAUAACAAATT against Stk35 | inactive: 1.09 |
| GGGUCCCUUUGUCAGUAUGTT against Cfap300 | inactive: 0.932 |
| CCCUGGUUAUCACAGACAATT against Rpl38 | inactive: 1.53 |
| GCUGGGAAAGCAGAAUCUATT against 0610009B22Rik | inactive: -0.747 |
| GCAGUAAAUGCGAGCAGGATT against Hoxb8 | inactive: 0.809 |
| GCACCAAAUUUUGUGCUUUTT against Olfr395 | inactive: 0.555 |
| GCGACAAAGCUCGUUAUGATT against Hmgb2 | active: -2.3 |
| CCUACUUAUGCCUUGCCACTT against Rbpjl | inactive: -0.403 |
| GGAGAAUCUUCAACACUGGTT against Adprh | inactive: -0.951 |
| CCAAGCAACACCACUCAUCTT against Acap2 | inactive: -0.681 |
| CCAAAGUCUGUUAAUGGGUTT against 4921517D22Rik | inactive: 0.401 |
| GGACCAGAUAAUAAAGGAATT against Tmed2 | inactive: -1.16 |
| GGACCAACAAGUUCAUCAATT against Arhgap10 | inactive: 1.26 |
| GGUAACAGAAUACCUGUCCTT against Hapln4 | inactive: -0.506 |
| CGGACUGUGUGUGCCAAGUTT against Trmt11 | inactive: -0.337 |
| GGAACCCAAGUGCUUAGAATT against Riox1 | inactive: -0.478 |
| GGGCCAUCUGUACUAUGAUTT against Tgm4 | inactive: 0.944 |
| GGCCUCAAGAGCAAUACGUTT against Zfp663 | inactive: -0.687 |
